Results published in article PMC5494183.
Results are given in words; binding and its absence hold for the method and conditions named. In cells and extracts the contact can be indirect. Binding can be weak; no strength is given. Where a sequence is shown, tags or fusion partners need not be part of it.

Target: ΔN10-NANOS2 (mouse)
Assay: co-IP; HEK 293T cells transfected with MYC- and FLAG-tagged constructs; anti-FLAG M2 affinity beads overnight at 4 °C, five washes; western blot

- binding: binds weakly
B1: MYC-NDFIP2 (protein, UniProt Q91ZP6 1-311)
chain: RRSASDAELSAGAEGATGSEAAPPGDLGGRTRGGGRGSAAAAATTSTREAEGAERRGDTPARKPDPEAGRMDHHQLGTGRYQVLHNEEDNSESSAVEQPSTSSLAAPTVEAAASAPALDPDSPPPYSSITVEAPTTSDTDVYSEFYPVPPPYSVATSLPTYDEAEKAKAAALAAAAADAPQRNQEEDCTPRDDFSDVEQLRVGNDGIFMLAFFMAFIFNWLGFCLSFCITNTIAGRYGAICGFGLSLIKWILIVRFSDYFTGYFNGQYWLWWIFLVLGLLLFFRGFVNYLKVRNMSESMAAAHRTRYFFLL
